Record: PubChem BioAssay AID602196 (INSERM, 2012)

- Aim: 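Knock-downs that protect lung cancer cells from cisplatin or sensitise them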
- Cell system: human A549 lung cancer cells
- Reagents: siRNA pair against human genes
- Timing: 48 h transfection before cisplatin; time from cisplatin to read-out not stated
- Challenge: cisplatin at a dose killing half of control-siRNA cells; exact dose and duration not given
- Read-out: 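Shift in cisplatin death relative to control siRNA, from -50 (all cells die) to +50 (no cells die); siRNAs harmful on their own scored 0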
- Reading the numbers: two-siRNA summed score (-2 to +2): higher = both siRNAs protect from cisplatin killing; -2 means both sensitise; mean protection from cisplatin (shift in death) and protection from cisplatin (shift in death), siRNA C and protection from cisplatin (shift in death), siRNA D: higher = protection from cisplatin killing
- Hit rule: 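siRNAs harmful alone (LDH or WST-1) get 0; others get +1 for less and -1 for more cisplatin killing; genes are active when the two siRNAs give the same sign, summing to ±2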
- Calls: active = both siRNAs shift cisplatin killing the same way; inactive = no consistent shift, or siRNA harmful alone
The whole screen tested about 23,000 reagents; shown is a random part of them. Of all reagents, 455 (2%) got an active call. 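Active includes both protection and sensitisation; some change values fall well beyond the stated -50 to +50 range.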 Reagents against one gene are numbered here. The record does not give: the amount of reagent.

no.	gene knocked down	reagent no.	two-siRNA summed score (-2 to +2)	mean protection from cisplatin (shift in death) (%)	protection from cisplatin (shift in death), siRNA C (%)	protection from cisplatin (shift in death), siRNA D (%)	activity call
1	EXD1	1	0	1.6	0.8	2.4	inactive
2	FBXL16	1	1	12.4	16	8.9	inactive
3	GPX6	1	0	-9.6	-9.2	-10	inactive
4	NEURL2	1	0	-1.8	-3.4	-0.2	inactive
5	USP36	1	0	3.9	-7.8	15.6	inactive
6	PLSCR5	1	0	-8.9	-14.6	-3.1	inactive
7	LOC441795	1	1	9.4	14.4	4.3	inactive
8	L2HGDH	1	-1	-9.8	-0.4	-19.3	inactive
9	SOST	1	0	-2.4	-1.3	-3.5	inactive
10	LOC283432	1	0	1.7	-3.9	7.3	inactive
11	PHLDB2	1	1	8.8	16.1	1.4	inactive
12	LOC390377	1	0	-4.3	-0.9	-7.7	inactive
13	RAB27A	1	0	8.5	12.3	4.8	inactive
14	OR4C45	1	0	7.6	9.9	5.2	inactive
15	VSNL1	1	-1	-22.8	-29.7	-15.9	inactive
16	SP8	1	1	15.4	18.1	12.7	inactive
17	ZNF76	1	1	13.4	26.3	0.5	inactive
18	LOC441570	1	1	8.2	3	13.3	inactive
19	LOC440424	1	0	8.3	3	13.5	inactive
20	CAPN9	1	0	-3.2	0.5	-7	inactive
21	IKBKE	1	1	9.1	31.5	-13.4	inactive
22	ACTL6A	1	1	0.3	7.5	-7	inactive
23	LOC197135	1	0	31.5	55.3	7.6	inactive
24	CEP43	1	0	-9.6	-28	8.8	inactive
25	DIDO1	1	-1	-9.6	-20.3	1.2	inactive
26	DIDO1	2	0	11.3	16.5	6.1	inactive
27	HS1BP3	1	0	6.2	14.8	-2.5	inactive

3 entries already listed, arranged by “protection from cisplatin (shift in death), siRNA D (%)”, descending:
gene knocked down	reagent no.	two-siRNA summed score (-2 to +2)	mean protection from cisplatin (shift in death) (%)	protection from cisplatin (shift in death), siRNA C (%)	protection from cisplatin (shift in death), siRNA D (%)	activity call
CEP43	1	0	-9.6	-28	8.8	inactive
DIDO1	2	0	11.3	16.5	6.1	inactive
DIDO1	1	-1	-9.6	-20.3	1.2	inactive

The results go on:
no.	gene knocked down	reagent no.	two-siRNA summed score (-2 to +2)	mean protection from cisplatin (shift in death) (%)	protection from cisplatin (shift in death), siRNA C (%)	protection from cisplatin (shift in death), siRNA D (%)	activity call
28	LRIF1	1	0	19.3	12	26.6	inactive
29	TMEM116	1	0	6.6	8.7	4.4	inactive
30	LOC440030	1	0	9	13.2	4.9	inactive
31	OR13C5	1	0	11.9	30.4	-6.5	inactive
32	KIAA0767	1	0	6.6	4.6	8.7	inactive
33	OR52D1	1	0	2.9	5.3	0.5	inactive
34	RPL3	1	0	34.2	37.9	30.5	inactive
35	DOCK1	1	0	1.6	5.2	-2	inactive
36	COPS7B	1	0	-5.5	-9	-2.1	inactive
37	TMEM97	1	0	3.5	4.1	3	inactive
38	C1R	1	0	-3.2	-5.4	-1	inactive
39	CACNB4	1	0	-4.4	-0.1	-8.6	inactive
40	LOC440706	1	1	16	24	8	inactive
41	LSM7	1	0	3.8	11.5	-3.9	inactive
42	LOC162993	1	0	6.8	5.3	8.3	inactive
43	OR13D1	1	0	6	8.9	3	inactive
44	CANT1	1	0	7.3	13.1	1.5	inactive
45	CCDC22	1	0	-4.6	-1.3	-7.8	inactive
46	FBXO32	1	0	2.6	11	-5.7	inactive
47	ZNF581	1	0	1.6	-7.1	10.3	inactive
48	SLC39A4	1	0	10	10.1	9.9	inactive
49	CSN1S2AP	1	0	6.8	17	-3.4	inactive
50	GOLGA2P7	1	0	4.3	-13.2	21.7	inactive
51	RFX7	1	0	11.1	2.9	19.3	inactive
52	LOC387631	1	0	-3	-2.9	-3.1	inactive
53	LARP4	1	1	12.8	21.2	4.4	inactive
54	RBCK1	1	0	-28.1	-34.7	-21.6	inactive
55	MCM4	1	0	-1.7	2.6	-5.9	inactive
56	VMP1	1	-1	-7.4	0.3	-15.2	inactive
57	EMG1	1	1	10.8	13.3	8.2	inactive
